Results: patent US20070269427A1
No constants are given. Whether binding was seen depends on the method and setting. Some results given as binding are weak or reduced against the parent protein; the word gives no strength.

Protein sequences, listed by entry. Tags and fused reporters are not part of them. Residues count along the entry.
UniProt P07722, residues 20-516: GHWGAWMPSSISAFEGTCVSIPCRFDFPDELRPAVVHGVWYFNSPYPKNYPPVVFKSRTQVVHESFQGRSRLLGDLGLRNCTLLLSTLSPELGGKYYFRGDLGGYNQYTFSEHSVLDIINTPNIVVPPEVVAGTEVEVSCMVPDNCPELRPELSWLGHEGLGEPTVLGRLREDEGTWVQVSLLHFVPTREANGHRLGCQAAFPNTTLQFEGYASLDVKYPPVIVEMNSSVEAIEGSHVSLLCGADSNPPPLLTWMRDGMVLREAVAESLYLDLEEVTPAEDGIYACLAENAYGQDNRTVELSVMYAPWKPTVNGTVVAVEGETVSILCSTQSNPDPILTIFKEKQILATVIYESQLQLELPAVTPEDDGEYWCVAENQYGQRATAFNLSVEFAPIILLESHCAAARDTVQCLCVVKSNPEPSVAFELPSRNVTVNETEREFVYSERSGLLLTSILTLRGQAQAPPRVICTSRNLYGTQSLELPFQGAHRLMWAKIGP

Key:
[1] = target: rat MAG-Fc fusion protein (R&D systems; 538-MG) (rat; human) (UniProt P07722); test: ELISA on coated rat MAG-Fc, CHO culture supernatant, detected with anti-human kappa
[2] = target: rat MAG-Fc fusion protein (R&D systems; 538-MG) (rat; human) (UniProt P07722); test: ELISA on coated rat MAG-Fc (FIG. 3)
[3] = target: rat MAG-Fc fusion protein (R&D systems; 538-MG) (rat; human) (UniProt P07722); test: direct binding ELISA on coated rat MAG-Fc, culture supernatant

Measured: binding

B1: Chimeric anti-MAG antibody (mouse/human chimeric anti-MAG antibody) (antibody, human IgG1, kappa, V domains shown)
VH: EIQLVQSGPELKKPGETNKISCKASGYTFTNYGMNWVKQAPGKGLKWMGWINTYTGEPTYADDFTGRFAFSLETSASTAYLQISNLKNEDTATYFCARNPINYYGINYEGYVMDYWGQGTLVTVSS
VL: NIMMTQSPSSLAVSAGEKVTMSCKSSHSVLYSSNQKNYLAWYQQKPGQSPKLLIYWASTRESGVPDRFTGSGSGTDFTLTIINVHTEDLAVYYCHQYLSSLTFGTGTKLEIKR
binds: all assays above
